This data set relates to BysR (Burkholderia sp. strain JP2-270). Nature of the data set: EMSA. As to conditions: EMSA/gel shift binding buffer (Beyotime GS005, composition and pH not stated), 20 min at room temperature in darkness, 6% native polyacrylamide gel, 100 V 4 h; recombinant protein; label: 5'-Cy5 on strand 1; letters put together from the description.

For at least one entry, the source does not settle the construct or the ends of the probe. No signal at the amounts used counts as a negative.

In the case of “CCTCTGTTCAGTTCGATGCGAAACCGCGTGCGGGGACGACGGCGGCGGCCAAGCCGCGGTCGCATTGAGTGGCGATCGTTACCAATGCCCCTGCAAGAAGCTGAAACGTCCATTTCAGTCATTGAGCGTTGCTGGGTGAAAACGTGCTGCCGCCGAATGCACTGAAGGCCGGAACTGGAAAACCCGGCACCGGCCCGGAGCGGGCACGTTCCCGGCGGATTCAACGAAAAAATCACGATGAAAAAATGAAACTATCCTTTCCATTGAATTTTATCCACGAATACCCCAGCCGCGTATGATAGCGGCGATTTAAAATATCTGCATTTATCCTGTAATTAGTTTTTTAGCCACGCCGCTTGCAGACCAAAAATCAACAAATCTGCAAGCCGTTCACGAACAAAATTCTGGCAGGCCAGATAAATCTGGCCTTTGTTTACCACGAAATTTTGTAATAGTCACCCGAGCACCGCATACCATGGATTTTCGTCCAAGAGGCCTTATTCGAGAGAAGAATCGGCGATTTTCATCACGTC (double strand) [probe 3 (ambR1 promoter -160 to -692)]”, the binding result is “binds”.
For “CGATTTTCATCACGTCACCACCGCTCACCGACGTGGCCTCAAGCACTTTCCTCCGGACATTGTTTCGATTTGATAAACGATCGATTCAATCTTCGTGATGGAAAAGCACAATATTCGCCGCCTACTTTCGGCAGCCCATTGTCGATTACACCTTCAGGCGATAAAAAT (double strand) [probe 1 (ambR1 promoter -677 to -844)]”, the binding result is listed as “no binding”.
For “CTCCTTGTTTCCTTGTTGTGCGTGCTTGAGGACGGCGGCGCAACGCCAGCGCGGGCGAGCCGGCGCGGTTTGCGCGGCGCGCGTTTCGTCGCGCGTTCTCGCATTGCACGCGCCGATGTGTTCGGCTCGCGCGAAACGGCGGCGCGCCGTGCTCCTCTGTTCAGTTCGATGCGAAACCGCGTGCGGGGACGACGGCGGCGGCCAAGCCGCGGTCGCATTGAGTGGCGATCGTTACCAATGCCCCTGCAAGAAGCTGAAACGTCCATTTCAGTCATTGAGCGTTGCTGGGTGAAAACGTGCTGCCGCCGAATGCACTGAAGGCCGGAACTG (double strand) [probe 2 (ambR1 promoter -7 to -336)]”, the binding result is on record as “no binding”.
